From patent publication US20190367620A1
Residue numbers refer to the chain shown, from its start. These are yes or no findings as the source states them, for the method shown. Some binding calls cover weakened binding; strength is not graded here. Each block holds one binder with its values, some of them ahead of it.

Protein sequences, listed by entry. Tags and fused reporters are not part of them. Lines headed by an entry give the natural chain unless they say otherwise; changes in a name come on top. Residues count along the entry.
UniProt P11362: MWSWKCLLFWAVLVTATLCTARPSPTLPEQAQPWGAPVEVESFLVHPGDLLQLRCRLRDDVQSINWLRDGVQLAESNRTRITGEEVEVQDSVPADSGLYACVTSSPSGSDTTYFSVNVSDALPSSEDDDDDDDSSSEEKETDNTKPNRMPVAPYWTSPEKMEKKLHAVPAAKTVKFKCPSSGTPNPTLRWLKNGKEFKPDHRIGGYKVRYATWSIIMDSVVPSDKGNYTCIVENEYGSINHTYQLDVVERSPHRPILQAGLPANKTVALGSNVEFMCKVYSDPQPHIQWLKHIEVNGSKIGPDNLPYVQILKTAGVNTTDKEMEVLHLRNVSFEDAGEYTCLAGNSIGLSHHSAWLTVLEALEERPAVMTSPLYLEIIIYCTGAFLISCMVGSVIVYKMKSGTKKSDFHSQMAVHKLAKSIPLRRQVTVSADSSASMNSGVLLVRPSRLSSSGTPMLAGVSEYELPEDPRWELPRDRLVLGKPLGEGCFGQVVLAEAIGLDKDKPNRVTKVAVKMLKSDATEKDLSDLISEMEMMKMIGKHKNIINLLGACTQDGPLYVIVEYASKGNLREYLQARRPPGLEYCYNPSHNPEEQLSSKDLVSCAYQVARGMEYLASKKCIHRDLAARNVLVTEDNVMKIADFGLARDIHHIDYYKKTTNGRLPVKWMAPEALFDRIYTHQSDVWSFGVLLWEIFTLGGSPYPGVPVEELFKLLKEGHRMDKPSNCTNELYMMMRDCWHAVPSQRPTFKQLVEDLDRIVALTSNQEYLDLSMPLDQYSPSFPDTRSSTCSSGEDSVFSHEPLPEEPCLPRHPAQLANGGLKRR
UniProt P16092, residues 22-376: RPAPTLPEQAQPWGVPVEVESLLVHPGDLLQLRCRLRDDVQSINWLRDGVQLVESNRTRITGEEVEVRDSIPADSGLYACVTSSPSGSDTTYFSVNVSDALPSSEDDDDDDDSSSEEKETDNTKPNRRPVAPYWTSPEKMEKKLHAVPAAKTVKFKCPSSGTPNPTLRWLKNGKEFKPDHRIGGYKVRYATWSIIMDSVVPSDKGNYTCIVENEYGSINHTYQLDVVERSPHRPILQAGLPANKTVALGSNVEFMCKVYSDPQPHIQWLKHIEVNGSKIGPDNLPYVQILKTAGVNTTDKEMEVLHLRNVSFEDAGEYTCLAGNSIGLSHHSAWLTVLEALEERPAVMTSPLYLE

Tests used:
[1] = target: human FGFR1b-IIIb extracellular domain with a HIS tag (human); test: ELISA
[2] = target: Human FGFR1 D2-His6 (human) (UniProt P11362); test: ELISA
[3] = target: human FGFR1b-IIIc extracellular domain with a HIS tag (human) (UniProt P11362); test: ELISA
muFGFR1a-IIIc (mouse) = muFGFR1a-IIIc (mouse) (UniProt P16092); test: ELISA
[4] = target: human FGFR1b-IIIb extracellular domain with a HIS tag (human); test: selectivity column of Table 2
[5] = target: Human FGFR1 D2-His6 (human) (UniProt P11362); test: selectivity column of Table 2
[6] = target: human FGFR1b-IIIc extracellular domain with a HIS tag (human) (UniProt P11362); test: selectivity column of Table 2
[7] = target: human FGFR1b-IIIb extracellular domain with a HIS tag (human); test: SPR
[8] = target: human FGFR1b-IIIc extracellular domain with a HIS tag (human) (UniProt P11362); test: SPR
[9] = target: Human FGFR1 D2-His6 (human) (UniProt P11362); test: ELISA, antibody titrated on FGFR1 Ig-D2, O.D. 450 nm [panel FGFR1 Ig-D2]
[10] = target: human FGFR1b-IIIb extracellular domain with a HIS tag (human); test: ELISA, antibody titrated on huFGFR1b-IIIb, O.D. 450 nm [panel huFGFR1b-IIIb]
[11] = target: human FGFR1b-IIIc extracellular domain with a HIS tag (human) (UniProt P11362); test: ELISA, antibody titrated on huFGFR1b-IIIc, O.D. 450 nm [panel huFGFR1b-IIIc]
[12] = target: Human FGFR1 D2-His6 (human) (UniProt P11362); test: ELISA, confirmed by SPR
[13] = target: human FGFR1b-IIIb extracellular domain with a HIS tag (human); test: ELISA, IgG1 format
[14] = target: human FGFR1b-IIIc extracellular domain with a HIS tag (human) (UniProt P11362); test: ELISA, IgG1 format
[15] = target: human FGFR1b-IIIb extracellular domain with a HIS tag (human); test: ELISA, EC50 from OD450 curves, IgG1 format
[16] = target: human FGFR1b-IIIc extracellular domain with a HIS tag (human) (UniProt P11362); test: ELISA, EC50 from OD450 curves, IgG1 format
[17] = target: human FGFR1b-IIIb extracellular domain with a HIS tag (human); test: SPR (BIAcore), IgG format

binding [1]: binds | binding [2]: binds | binding [3]: binds | binding (muFGFR1a-IIIc (mouse)): binds | binding [4]: binds | binding [5]: binds | binding [6]: binds | binding [7]: binds | binding [8]: binds | binding [9]: binds | binding [10]: binds | binding [11]: binds | binding [12]: binds
B1: mAb #A08 (antibody, V domains shown)
VH: EVQLQESGPGLVKPSGTLSLTCAVSGGSISSNNWWSWVRQPPGKGLEWIGEIYHSGSTSYNPSLKSRVTISVDKSKNQFSLKLNSVTAADTAVYYCARGTDWFDPWGQGTLVTVSS
VL: QAVLTQPPSVSVAPGQTARITCGGNNIGSESVHWYQQKPGQAPVLVVYDDSDRPSGIPERFSGSNSGNTATLTISRVEAGDEADYYCQVWDSTSDHRVFGGGTKLTVL

binding [13]: binds | binding [14]: binds | binding [15]: binds | binding [16]: binds
B2: #B10 IgG1 (antibody, V domains shown)
VH: B1 VH with E1Q, N84S, G99A, F103Y
VL: SYVLTQPPSVSVAPGQTARITCGGNNIGSESVHWYQQKPGQAPVLVVYDDSDRPSGIPERFSGSNSGNTATLTISRVEAGDEADYYCQVWDSTSDHRVFGGGTKLTVLG

binding [17]: binds | binding [15]: binds | binding [16]: binds
B3: #G04 IgG (antibody, V domains shown)
VH: B1 VH with E1Q, N84S, F103Y, P105L
VL: B2 VL

binding [15]: binds | binding [16]: binds
B4: mAb #D01 IgG1 (antibody, V domains shown)
VH: B1 VH with E1Q, N84S, G99A, P105H
VL: B2 VL

binding [13]: binds | binding [14]: binds | binding [15]: binds | binding [16]: binds
B5: #A07 IgG1 (antibody, V domains shown)
VH: B1 VH with E1Q, N84S, F103Y
VL: B2 VL

binding [17]: binds | binding [15]: binds | binding [16]: binds
B6: #D02 IgG (antibody, V domains shown)
VH: B1 VH with E1Q, N84S, F103I, P105T
VL: B2 VL
